PubChem BioAssay AID1159584 – Peter MacCallum Cancer Centre | 2016

Aim: 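Genes whose loss is lethal only together with E-cadherin loss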 (primary screen)
System: human MCF10A breast epithelial cells, parental and CDH1-null
Knock-down reagent: siRNA against human genes
Measurement: 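ATP luminescence (CellTiter-Glo) viability per line relative to mean mock wells over all plates, and the ratio of CDH1-null to parental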
Reading the numbers: CDH1-null / parental viability ratio: higher = CDH1-null cells survive relatively better than parental; CDH1-null viability vs mock: higher = more viable CDH1-null cells
Units: CDH1-null viability vs mock in fraction of mock
The deposit covers about 18,000 reagents; shown is an unselected part. Not all columns of the deposit are shown. The record does not give: the amount of reagent, the time to read-out.

For RAP1GAP2 the deposit lists CDH1-null / parental viability ratio 1.23; CDH1-null viability vs mock 0.9. CARD6 gave CDH1-null / parental viability ratio 0.77; CDH1-null viability vs mock 0.69. After knock-down of SF3A2, the record shows CDH1-null / parental viability ratio 1.33; CDH1-null viability vs mock 0.72. With knock-down of BMP15, the record shows CDH1-null / parental viability ratio 0.94; CDH1-null viability vs mock 0.5. After knock-down of XDH, the screen gave CDH1-null / parental viability ratio 0.9; CDH1-null viability vs mock 0.93. NLRC5 scored CDH1-null / parental viability ratio 0.92; CDH1-null viability vs mock 0.57.

Silencing of PPM1G came out at: CDH1-null / parental viability ratio 1.3; CDH1-null viability vs mock 0.95. PPHLN1 gave CDH1-null / parental viability ratio 1.15; CDH1-null viability vs mock 0.62. FOXF1 gave CDH1-null / parental viability ratio 0.95; CDH1-null viability vs mock 0.75. Against ITGA1 the deposit lists CDH1-null / parental viability ratio 1.42; CDH1-null viability vs mock 0.68. Knock-down of KLHDC8A gave: CDH1-null / parental viability ratio 1; CDH1-null viability vs mock 0.68. After knock-down of ZMYM2, the screen gave CDH1-null / parental viability ratio 0.84; CDH1-null viability vs mock 0.76.

With knock-down of CACNG3, the record shows CDH1-null / parental viability ratio 1.23; CDH1-null viability vs mock 1.01. With knock-down of TRMT61B the results were CDH1-null / parental viability ratio 1.07; CDH1-null viability vs mock 0.86. After knock-down of MTHFD2L the results were CDH1-null / parental viability ratio 0.83; CDH1-null viability vs mock 0.96. TNK1 scored CDH1-null / parental viability ratio 0.75; CDH1-null viability vs mock 0.54. Against COPS4, the entry reads CDH1-null / parental viability ratio 1.01; CDH1-null viability vs mock 0.88. With knock-down of RGPD1, the screen gave CDH1-null / parental viability ratio 0.71; CDH1-null viability vs mock 0.54.

For TMOD1 the deposit lists CDH1-null / parental viability ratio 0.79; CDH1-null viability vs mock 0.54. After knock-down of MIDEAS, the record shows CDH1-null / parental viability ratio 1.01; CDH1-null viability vs mock 0.86. With knock-down of TOM1 the results were CDH1-null / parental viability ratio 0.81; CDH1-null viability vs mock 0.57. For CUL2 the deposit lists CDH1-null / parental viability ratio 1.4; CDH1-null viability vs mock 0.7. After knock-down of CEP164 the results were CDH1-null / parental viability ratio 0.7; CDH1-null viability vs mock 0.35. With knock-down of FTMT the results were CDH1-null / parental viability ratio 1.76; CDH1-null viability vs mock 0.95.
